{"source": "the supplement of paper PMC11150407", "note": "Structures can show the parent of a compound that is named as a salt. About 180 (8.6%) of roughly 2,100 compounds showed an effect of 50% or more. The list shows a part of the results."}
{"system": "MOLM1 and UCSD/AML1 (averaged)", "experiment": "cell viability relative to DMSO control (POC); higher = less growth inhibition", "conditions": "1 µM; 72 h", "protocol": "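Primary viability screen in the 3q26 EVI1-high AML cell lines MOLM1 and UCSD/AML1 (1.5e3 cells/well, 384-well), compounds at 1 uM for 72 h. ATP CellTiter-Glo read-out given as percent of viable cells over DMSO control (POC), averaged over duplicates. DMSO was the negative control and 5 uM etoposide the positive control. This mapping covers the MicroSource Spectrum and Selleck anticancer libraries (drug names).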", "units": {"cell viability": "%"}}
{"smiles": "COC1=CC(=O)C(C(=O)c2ccccc2)=CC1=O", "cell viability": 103}
{"smiles": "N[C@@H](Cc1cc(I)c(Oc2ccc(O)c(I)c2)c(I)c1)C(=O)O", "cell viability": 92.2}
{"smiles": "N[C@@H](Cc1cc(I)c(Oc2ccc(O)c(I)c2)c(I)c1)C(=O)O", "note": "[LIOTHYRONINE (L- isomer) SODIUM]", "cell viability": 93.1}
{"smiles": "CS(=O)(=O)OCCCCOS(C)(=O)=O", "note": "[Busulfan (Myleran, Busulfex)]", "cell viability": 74.3}
{"smiles": "CS(=O)(=O)OCCCCOS(C)(=O)=O", "cell viability": 109}
{"smiles": "O=C(/C=C/c1ccc(O)cc1)c1ccc(O)cc1O", "cell viability": 62.7}
{"smiles": "Cc1c(NC(=O)c2cccnc2)c(=O)n(-c2ccccc2)n1C", "cell viability": 85.6}
{"smiles": "OCc1c[nH]c2ccccc12", "cell viability": 87.2}
{"smiles": "COc1ccc(-c2coc3c(O)c(O)c(OC)cc3c2=O)cc1", "cell viability": 111}
{"smiles": "N#CCNC(=O)c1ccc(-c2ccnc(Nc3ccc(N4CCOCC4)cc3)n2)cc1", "note": "[Momelotinib (CYT387)]", "cell viability": 51.4}
{"smiles": "N[C@@H](Cc1c[nH]c2ccccc12)C(=O)O", "cell viability": 89.5}
{"smiles": "O=C(OOC(=O)c1ccccc1)c1ccccc1", "cell viability": 101}
{"smiles": "CCC1(C)OC(=O)N(C)C1=O", "note": "(stereo not given)", "cell viability": 115}
{"smiles": "CC(O)Cn1cnc2c1c(=O)n(C)c(=O)n2C", "note": "(stereo not given)", "cell viability": 94.4}
{"smiles": "NS(=O)(=O)c1cc2c(cc1C(F)(F)F)NCNS2(=O)=O", "cell viability": 102}
{"smiles": "NC(=O)CCCCC1CCSS1", "note": "(stereo not given)", "cell viability": 94.1}
{"smiles": "COc1cc2nccc(Oc3ccc(NC(=O)NC4CC4)c(Cl)c3)c2cc1C(N)=O", "note": "[E7080 (Lenvatinib)]", "cell viability": 58}
{"smiles": "CN1C(=O)CC[C@H]1c1cccnc1", "cell viability": 99.9}
{"smiles": "CC[C@@H]1C(=O)OC[C@@H]1Cc1cncn1C", "cell viability": 101}
{"smiles": "O=c1oc2c(O)c(O)cc3c(=O)oc4c(O)c(O)cc1c4c23", "cell viability": 90.8}
{"smiles": "NC(=O)NCCC[C@H](N)C(=O)O", "cell viability": 93.7}
{"smiles": "NS(=O)(=O)c1cc2c(cc1Cl)NC(C1CC3C=CC1C3)NS2(=O)=O", "note": "(stereo not given)", "cell viability": 103}
{"smiles": "O=C1NS(=O)(=O)c2ccccc21", "cell viability": 101}
{"smiles": "CC(=O)CC(c1ccccc1)c1c(O)c2ccccc2oc1=O", "note": "(stereo not given)", "cell viability": 90.2}
{"smiles": "CCN(CC)CC(=O)Nc1c(C)cccc1C", "cell viability": 91.2}
{"smiles": "CC(C=CC(=O)NO)=CC(C)C(=O)c1ccc(N(C)C)cc1", "note": "(stereo not given) [Trichostatin A (TSA)]", "cell viability": 1.52}
{"smiles": "CC(=O)OCC(=O)[C@@]12OC(C)(C)O[C@@H]1C[C@H]1[C@@H]3C[C@H](F)C4=CC(=O)C=C[C@]4(C)[C@@]3(F)[C@@H](O)C[C@@]12C", "cell viability": 69.7}
{"smiles": "c1ccc2c(CC3=NCCN3)cccc2c1", "cell viability": 67.8}
{"smiles": "C=CC1=C(C(=O)O)N2C(=O)[C@@H](NC(=O)/C(=N\\O)c3csc(N)n3)[C@H]2SC1", "cell viability": 88}
{"smiles": "OCc1ccccc1O[C@@H]1O[C@H](CO)[C@@H](O)[C@H](O)[C@H]1O", "cell viability": 96.8}
{"smiles": "CC(=O)NS(=O)(=O)c1ccc(N)cc1", "cell viability": 104}
{"smiles": "Oc1ccc([C@H]2Oc3cc(O)cc(O)c3C[C@H]2O)cc1", "cell viability": 102}
{"smiles": "COc1cccc2c1C(=O)c1c(O)c3c(c(O)c1C2=O)C[C@@](O)(C(C)=O)C[C@@H]3O[C@H]1C[C@H](N)[C@H](O)[C@H](C)O1", "note": "[Daunorubicin HCl (Daunomycin HCl)]", "cell viability": 1.38}
{"smiles": "COc1cccc2c1C(=O)c1c(O)c3c(c(O)c1C2=O)C[C@@](O)(C(C)=O)C[C@@H]3O[C@H]1C[C@H](N)[C@H](O)[C@H](C)O1", "cell viability": 1.85}
{"smiles": "CC(C)c1c(O)ccc2c1CC[C@H]1C(C)(C)CCC[C@]21C", "cell viability": 90.4}
{"smiles": "CCCC1O[C@@H]2C[C@H]3[C@@H]4CCC5=CC(=O)C=C[C@]5(C)[C@H]4[C@@H](O)C[C@]3(C)[C@]2(C(=O)CO)O1", "note": "(stereo not given in full)", "cell viability": 80.2}
{"smiles": "O=NN(CCCl)C(=O)NCCCl", "cell viability": 82.2}
{"smiles": "CCOC(=O)c1ncn2c1CN(C)C(=O)c1cc(F)ccc1-2", "cell viability": 93.5}
{"smiles": "CC(C(=O)O)c1cccc(C(=O)c2ccccc2)c1", "note": "(stereo not given)", "cell viability": 103}
{"smiles": "C#C[C@]1(O)CC[C@H]2[C@@H]3CCc4cc(O)ccc4[C@H]3CC[C@@]21C", "cell viability": 99.5}
{"smiles": "Cc1occc(=O)c1O", "cell viability": 103}
{"smiles": "CC(C)=CC1C(CO)C1(C)C", "note": "(stereo not given)", "cell viability": 104}
{"smiles": "CC1(C)CC23C(=O)CCC(O)C2(C)CCC13", "note": "(stereo not given)", "cell viability": 96.7}
{"smiles": "CO[C@H]1O[C@H](CO)C(O[C@@H]2OC(C(=O)O)[C@@H](O[C@H]3O[C@H](COS(=O)(=O)O)C(O[C@@H]4OC(C(=O)O)[C@@H](O[C@H]5O[C@H](CO)C(O[C@@H]6OC(C(=O)O)[C@@H](O[C@H]7O[C@H](COS(=O)(=O)O)C(O[C@@H]8OC(C(=O)O)=C[C@H](O)C8OS(=O)(=O)O)[C@H](O)[C@H]7NC(C)=O)[C@H](O)[C@H]6O)[C@H](O)[C@H]5NC(C)=O)[C@H](O)[C@H]4O)[C@H](O)[C@H]3NC(C)=O)[C@H](O)[C@H]2O)[C@H](O)[C@H]1NC(C)=O", "note": "(stereo not given in full)", "cell viability": 86.8}
{"smiles": "CCOc1cc(CC(=O)N[C@@H](CC(C)C)c2ccccc2N2CCCCC2)ccc1C(=O)O", "cell viability": 102}
{"smiles": "O=C(O)C(Cc1c[nH]c2ccccc12)N1C(=O)c2ccccc2C1=O", "note": "(stereo not given)", "cell viability": 73.8}
{"smiles": "COc1cc2c(cc1OC)C1(O)C(=O)c3ccc(O)c(C(=O)O)c3OC1CO2", "note": "(stereo not given)", "cell viability": 101}
{"smiles": "CCC(C(N)=O)c1ccccc1", "note": "(stereo not given)", "cell viability": 109}
{"smiles": "COc1c(N2C[C@@H]3CCCN[C@@H]3C2)c(F)cc2c(=O)c(C(=O)O)cn(C3CC3)c12", "cell viability": 92.8}
{"smiles": "COc1ccc(C(=O)c2ccccc2)c(O)c1", "cell viability": 90.2}
{"smiles": "CC1(C)C(=O)C=CC2(C)C1C=CC1(C)C2CCC2(C)C(c3ccoc3)OC(=O)C3OC312", "note": "(stereo not given)", "cell viability": 86.9}
{"smiles": "COc1ncnc(NS(=O)(=O)c2ccc(N)cc2)c1OC", "cell viability": 96.1}
{"smiles": "CC(=O)OCC(=O)[C@@]1(O)[C@H](C)C[C@H]2[C@@H]3CCC4=CC(=O)C=C[C@]4(C)[C@@]3(F)[C@@H](O)C[C@@]21C", "note": "[Dexamethasone acetate]", "cell viability": 63.4}
{"smiles": "CC(=O)OCC(=O)[C@@]1(O)[C@H](C)C[C@H]2[C@@H]3CCC4=CC(=O)C=C[C@]4(C)[C@@]3(F)[C@@H](O)C[C@@]21C", "cell viability": 65.8}
{"smiles": "COc1ccc(C(=O)CC(=O)c2ccc(C(C)(C)C)cc2)cc1", "cell viability": 87.3}
{"smiles": "NCCSSCCN", "cell viability": 113}
{"smiles": "CC(C)NCC(O)c1ccc(O)c(O)c1", "note": "(stereo not given)", "cell viability": 119}
{"smiles": "CS(=O)(=O)N1CCN(Cc2cc3nc(-c4cccc5[nH]ncc45)nc(N4CCOCC4)c3s2)CC1", "note": "[Pictilisib (GDC-0941)]", "cell viability": 51.1}
{"smiles": "CNS(=O)(=O)c1ccc(NC(=O)c2ccccc2C(=O)O)cc1", "cell viability": 110}
{"smiles": "O=C(CCCCCCC(=O)Nc1ccccc1)NO", "note": "[Vorinostat (SAHA)]", "cell viability": 22}
